At least one compound was matched to its structure with a doubt left.
Tested on: mammalian cells expressing an immunoadhesin (DG44)
Assay: Transition of immunoadhesin-expressing cells from glutamine-containing to glutamine-free media: cell viability and growth rate (trypan blue exclusion, Cedex)
Type: cell-based
Settings: 2.5 μM corticosteroid in glutamine-free media; FIG. 3
From the text: Cell culture methods: Cells were thawed and maintained as in a previous report (Kshirsagar, et al. 2012 Biotechnol Bioeng, Huang, et al. Biotechnology Progress 26(5):1400-1410 (2010)). Basal medium for thaw and passing was the same as in previous reports (Kshirsagar/Huang).

**Q.** C[C@@H]1C[C@H]2[C@@H]3CCC4=CC(=O)C=C[C@]4(C)[C@@]3(F)[C@@H](O)C[C@]2(C)[C@@]1(O)C(=O)CO [Dexamethasone, dexamethasone] was tested. Which “viability drop vs control condition” value did it give?
**A.** The value was “prevented the sharp viability drop”.

**Q.** What about the viability recovery period of the same compound?
**A.** The viability recovery period was “shortened the viability recovery period”.
